Our source for the cell number change and AC50 values is PubChem BioAssay AID2685 (National Center for Advancing Translational Sciences (NCATS), 2010).

This assay can be described thus: qHTS Assay for Lipid Storage Modulators in Drosophila S3 Cells.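 As to cell number change: cells counted by Cell Tracker Red CMTPX staining in the red channel.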 Particulars: BODIPY lipid droplet fluorescence, 18-24 h; for cell number change: measured here: cell count max response, cells fed with added oleic acid. An outline of the steps:
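Laser-scanning cytometry quantifies lipid droplet accumulation (500–530 nm total intensity; droplet/cell object ratio) in oleic acid-fed (400 uM added) Drosophila S3 cells treated with a concentration series. 20 uM Triacsin C defined 100% inhibition.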

[1] abbreviates: measured here: lipid fluorescence (Fed channel) AC50, cells fed with added oleic acid.
Setting [2] is: measured here: cell number channel AC50, cells fed with added oleic acid.

Some of the results follow. Further columns of the screen follow, without active or inactive calls. Most of these compounds were active or inconclusive in the main read-out, so they are no random draw. The note in brackets gives the kind of curve behind each potency; many fits are weak.

By AC50 is commonly meant the concentration at which the activity in the assay is half-maximal. A high value points to weaker potency. Regarding `CN(C)c1ccc(C(=O)/C=C/c2ccc(Br)cc2)cc1`, the cell number change was -1.72%. Further, the AC50 under setting [1] is 2.91 µM [falling, partial curve].
With `CC(C)OP(=O)(OC(C)C)C(O)c1ccc2c(c1)OCO2` (stereo unspecified), the cell number change came out at 3.18%.
For the compound `CC(C)(C)C(=O)NC(=S)NNC(=O)c1sc2ccccc2c1Cl`, the cell number change was -65.5%. Besides, under setting [2], the AC50 was 7.31 µM [falling, partial curve]. Besides, under setting [1], the AC50 was 5.8 µM [falling, full curve].
For `Cc1cc(C)cc(SCc2noc(C(=O)NC(C)C)c2C(=O)NC(C)C)c1`, the cell number change stood at 27.5%. Further, the half-maximal activity concentration (AC50) under setting [1] is 18.4 µM [rising, single point].
Take `Cc1ccc2c(c1)N(C(=O)CCC(=O)NCCCN1CCN(C)CC1)CCO2`: the cell number change amounted to 17.6%. Moreover, the AC50 under setting [1] is 6.51 µM [rising, single point].
As to `O=C(O)c1nn(CC(=O)N2CCN(c3ccccc3)CC2)c(=O)c2ccccc12`, the cell number change is 23.9%. Besides, the AC50 under setting [1] was 29.1 µM [rising, single point].
With `Fc1ccc(-[n+]2nc(Nc3ccccc3)sc2-c2c(Cl)cccc2Cl)cc1`, the cell number change is -29.6%. The AC50 under setting [1] was 29.1 µM [falling, partial curve, poor fit].
Turning to `NC(=O)[C@@H]1CCCN1Cc1c(C(=O)N2CCN(C3CCCCC3)CC2)nc2ccccn12`, the cell number change was 13.6%. The AC50 under setting [1] is 6.51 µM [rising, single point].
For the compound `COc1ccc(-c2cc(=O)oc3c(C)c(OC(C)C(C)=O)ccc23)cc1` (stereo unspecified), the cell number change is 25.7%.
As to `Cc1ccc(C)c(C(=O)Cn2ncc(Cl)c(Cl)c2=O)c1`, the cell number change was -0.719%. For the same compound, the AC50 under setting [1] was 3.26 µM [rising, partial curve].
In the case of `CNc1oc(-c2ccc(C)cc2)nc1P(=O)(c1ccccc1)c1ccccc1`, the cell number change is -33.6%. For the same compound, the AC50 under setting [2] is 23.1 µM [falling, single point].
As for `CCCCCCn1c(=O)c(-c2nc3ccccc3c(=O)[nH]2)c(O)c2ccccc21`, the cell number change came out at 1.08%. The AC50 under setting [1] was 20.6 µM [rising, single point].
Regarding `Cc1ccc(CNC(=O)Cc2ccc(NC3=NC4CS(=O)(=O)CC4S3)cc2)cc1` (stereo unspecified), the cell number change came to 8.36%. The AC50 under setting [1] was 6.51 µM [rising, single point].
Take `CC(=Nc1ccc(C)cc1)c1sc2ccccc2c1O`: under setting [2], the AC50 was 3.66 µM [rising, single point].
Turning to `COC(=O)c1ccc(NC(=O)CSc2nnc(COc3ccc4c(c3)CCCC4)o2)cc1`, the AC50 under setting [2] was 0.00411 µM [falling, full curve, poor fit].
With `CCN(CC)c1ccc(/C=C2\CCC(/C=C(\C#N)C(=O)Nc3ccccc3F)=C2N2CCOCC2)cc1`, the AC50 under setting [1] is 0.411 µM [falling, full curve].
As to `Cc1ccc(C(=O)CC(=O)COc2ccc(Cl)cc2)cc1`, the cell number change was -29.4%. For the same compound, the AC50 under setting [1] is 29.1 µM [falling, single point].
Take `CCOC(=O)N1CCC2(O)CCCCC2C1c1ccc(F)cc1` (stereo unspecified): the cell number change amounted to 10.1%.
With `COc1ccc(C(=O)Oc2ccc3c(c2)OCO3)cc1OC`, the cell number change is -37.1%. Moreover, the AC50 under setting [2] is 29.1 µM [falling, partial curve, poor fit].
As for `COc1cc(C(=O)NCCCN(C)C)ccc1OCC(=O)Nc1cccc(C(F)(F)F)c1`, the cell number change turned out to be 15.8%. Also, the AC50 under setting [1] is 0.00517 µM [falling, full curve, poor fit].
`COc1ccc(NC(=O)c2ccc(F)cc2)cc1S(=O)(=O)Nc1cc(C)ccc1Br`: the cell number change is -2.23%. Moreover, the AC50 under setting [2] is 0.103 µM [rising, full curve, poor fit].
For the compound `CN(c1ccc(C(=O)N/N=C/c2cccc([N+](=O)[O-])c2)cc1)S(=O)(=O)c1ccccc1`, the cell number change is -18.4%. Also, the AC50 under setting [2] is 6.51 µM [falling, partial curve, poor fit].
On to `Cc1c(NC(=O)OCCSc2nc(N(C)C)nc(N(C)C)n2)sc(=S)n1C`, for which the cell number change came out at 21.5%. The AC50 under setting [2] is 0.259 µM [rising, full curve, poor fit]. Under setting [1], the AC50 was 0.259 µM [rising, partial curve, poor fit].
For `Cc1nn(S(=O)(=O)c2cccs2)c(C)c1Sc1ccc([N+](=O)[O-])cc1`, the cell number change was -32%. In addition, the AC50 under setting [2] is 8.2 µM [falling, partial curve, poor fit]. Further, the AC50 under setting [1] was 16.4 µM [falling, partial curve, poor fit].
For `Cn1nccc1C(=O)Nc1ccc(OC(=O)c2ccnn2C)cc1`, the cell number change came out at 16.2%. The AC50 under setting [2] is 1.03 µM [falling, full curve, poor fit]. The AC50 under setting [1] was 1.3 µM [falling, full curve].
For the compound `COCCNC(=O)/C(C#N)=C/c1ccc(OC(=O)c2cccs2)c(OC)c1`, the cell number change is -47.5%. In addition, the AC50 under setting [2] is 32.6 µM [falling, single point]. Also, under setting [1], the AC50 is 32.6 µM [falling, single point].
With `Cc1ccc(NC(=O)CCNS(=O)(=O)c2ccc3[nH]c(=O)oc3c2)cc1N(C)C`, the cell number change was -3.28%.
Turning to `CN(C)CCCN(C(=O)c1ccco1)c1nc2c(F)cccc2s1`, the AC50 is, setting by setting: under setting [2], 6.51 µM [rising, partial curve, poor fit]; under setting [1], 6.51 µM [rising, single point].
`CCN(CC)CCn1c(NCc2ccc(OC)cc2)nc2ccccc21`: the cell number change is -8.81%.
In the case of `O=[N+]([O-])c1ccccc1S(=O)(=O)N1CCCCC1`, the AC50 under setting [1] is 29.1 µM [falling, single point].
For the compound `CCCCSCCCNC(=O)c1ccc2c(c1)N(CC)C(=O)c1ccccc1S2=O` (stereo unspecified), the cell number change is -24.3%. Besides, the AC50 under setting [1] is 6.51 µM [falling, single point].
As to `Cc1ccc(NC(=S)Nc2cccc3ccccc23)cc1F`, the cell number change was -22.8%. Moreover, the AC50 under setting [1] is 29.1 µM [rising, single point].
`Cn1c(SCC(=O)NCCc2ccccc2)nc2c([nH]c3ccccc32)c1=O`: the cell number change was 17%. The AC50 under setting [2] is 0.103 µM [rising, partial curve, poor fit]. The AC50 under setting [1] is 0.0651 µM [rising, full curve, poor fit].
As to `COC(=O)c1c(NC(=O)Cc2ccccc2)sc2c1C(C(=O)OC)CC2` (stereo unspecified), the cell number change came out at 34.5%. Besides, the AC50 under setting [2] is 0.0461 µM [rising, full curve, poor fit]. The AC50 under setting [1] was 0.411 µM [rising, full curve, poor fit].
Consider `O=C(O)c1cccc(N=C2NC(=O)C(CO)(CO)S2)c1`, for which the cell number change was determined as 16.1%. For the same compound, the AC50 under setting [1] is 29.1 µM [rising, single point].
Regarding `Cc1cc(C)c(COCc2cc(/C=N/O)c(C)cc2C)cc1/C=N/O`, the cell number change was -24.5%. The AC50 under setting [2] is 2.91 µM [rising, single point]. Besides, under setting [1], the AC50 was 6.51 µM [rising, single point].
